Some results were stated once for a whole list of compounds, not compound by compound.
What was measured:
Format in all cases: in vivo
Laodelphax striatella = assay: Insecticidal test on Laodelphax striatella; details: 500 ppm, rice seedlings dipped 30 seconds, 3rd-instar larvae, 8 days after inoculation
From the text: Insecticidal Test on Laodelphax striatella
The amide compounds represented by the general formula (I) of the present invention or salts thereof were separately dispersed in water and diluted to 500 ppm, and rice plant seedlings (variety: Nihonbare) were dipped in the agrochemical dispersions for 30 seconds. After air-dried, each seedling was put into a separate glass test tube and inoculated with ten 3rd-instar larvae of Laodelphax striatella, and then the glass test tubes were capped with cotton plugs. At 8 days after the inoculation, the numbers of surviving larvae and dead larvae were counted, the corrected mortality rate was calculated according to the formula shown below, and the insecticidal effect was evaluated according to the criteria of Test Example 1. Corrected mortality rate (%)=100×(Survival rate in a non-treatment plot−Survival rate in a treatment plot)/Survival rate in a non-treatment plot

Myzus persicae = assay: Test of control effect on Myzus persicae; details: 500 ppm, foliar application to potted Chinese cabbage, 6 days after application
Plutella xylostella = assay: Insecticidal test on Plutella xylostella; details: 500 ppm, Chinese cabbage seedlings with laid eggs dipped about 30 seconds, 25° C., 6 days after dip treatment
From the text: Insecticidal Test on Plutella xylostella
Adults of Plutella xylostella were released onto Chinese cabbage seedlings and allowed to lay eggs thereon. At 2 days after the release of the adults, the Chinese cabbage seedlings with laid eggs were dipped for about 30 seconds in agrochemical formulations diluted to 500 ppm, each of which contained a different amide compound represented by the general formula (I) of the present invention as an active ingredient. After air-dried, the seedlings were kept in a thermostatic chamber at 25° C. At 6 days after the dip treatment, the number of hatched larvae per plot was counted, the mortality rate was calculated according to the formula shown below, and the insecticidal effect was evaluated according to the criteria of Test Example 1. This test was conducted in triplicate using 10 adults of Plutella xylostella per plot. Corrected mortality rate (%)=100×(Number of hatched larvae in a non-treatment plot−Number of hatched larvae in a treatment plot)/Number of hatched larvae in a non-treatment plot

`CCSc1cc(C(F)(F)F)ccc1C(=O)N(CC)c1ccc(C(F)(F)F)cn1` [Compound 1-4] was tested, and the “insecticidal effect (corrected mortality rate) activity level” value (Laodelphax striatella) was “A (the control rate is 100%)”, the “control effect (control rate) activity level” value (from here on “control effect”) (Myzus persicae) was “A (the control rate is 100%)” and the “insecticidal effect (corrected mortality rate, hatched larvae) activity level” value (Plutella xylostella) was “A (the control rate is 100%)”.

For `CCN(C(=O)c1ccc(C(F)(F)F)cc1[S+]([O-])CC)c1ccc(C(F)(F)F)cn1` (stereo not drawn) [Compound 1-5], the “insecticidal effect (corrected mortality rate) activity level” value (Laodelphax striatella) was “A (the control rate is 100%)”, the “control effect” value (Myzus persicae) was “A (the control rate is 100%)” and the “insecticidal effect (corrected mortality rate, hatched larvae) activity level” value (Plutella xylostella) was “A (the control rate is 100%)”.

`CCN(C(=O)c1ccc(C(F)(F)F)cc1S(=O)(=O)CC)c1ccc(C(F)(F)F)cn1` [Compound 1-6] was tested, and the “insecticidal effect (corrected mortality rate) activity level” value (Laodelphax striatella) was “A (the control rate is 100%)”, the “control effect” value (Myzus persicae) was “A (the control rate is 100%)” and the “insecticidal effect (corrected mortality rate, hatched larvae) activity level” value (Plutella xylostella) was “A (the control rate is 100%)”.

`CCSc1cc(C(F)(F)F)ccc1C(=O)N(c1ccc(C(F)(F)F)cn1)C1CC1` [Compound 1-7] was tested, and the “insecticidal effect (corrected mortality rate) activity level” value (Laodelphax striatella) was “A (the control rate is 100%)” and the “insecticidal effect (corrected mortality rate, hatched larvae) activity level” value (Plutella xylostella) was “A (the control rate is 100%)”.

With `CC[S+]([O-])c1cc(C(F)(F)F)ccc1C(=O)N(c1ccc(C(F)(F)F)cn1)C1CC1` (stereo not drawn) [Compound 1-8] the “control effect” value (Myzus persicae) was “A (the control rate is 100%)” and the “insecticidal effect (corrected mortality rate, hatched larvae) activity level” value (Plutella xylostella) was “A (the control rate is 100%)”.

`CCS(=O)(=O)c1cc(C(F)(F)F)ccc1C(=O)N(c1ccc(C(F)(F)F)cn1)C1CC1` [Compound 1-9] was tested, and the “control effect” value (Myzus persicae) was “A (the control rate is 100%)” and the “insecticidal effect (corrected mortality rate, hatched larvae) activity level” value (Plutella xylostella) was “A (the control rate is 100%)”.

`CCSc1cc(C(F)(F)F)cnc1C(=O)N(CC)c1ccc(C(F)(F)F)cn1` [Compound 1-10] was tested, and the “insecticidal effect (corrected mortality rate, hatched larvae) activity level” value (Plutella xylostella) was “A (the control rate is 100%)”.

For `CCN(C(=O)c1ncc(C(F)(F)F)cc1S(=O)(=O)CC)c1ccc(C(F)(F)F)cn1` [Compound 1-12], the “insecticidal effect (corrected mortality rate, hatched larvae) activity level” value (Plutella xylostella) was “A (the control rate is 100%)”.

In the case of `CCSc1cc(C(F)(F)F)cnc1C(=O)N(c1ccc(C(F)(F)F)cn1)C1CC1` [Compound 1-13], the “insecticidal effect (corrected mortality rate, hatched larvae) activity level” value (Plutella xylostella) was “A (the control rate is 100%)”.

For `CCSc1cc(C(F)(F)F)cnc1C(=O)N(C)c1ccc(C(F)(F)F)cn1` [Compound 1-16], the “insecticidal effect (corrected mortality rate) activity level” value (Laodelphax striatella) was “A (the control rate is 100%)”, the “control effect” value (Myzus persicae) was “A (the control rate is 100%)” and the “insecticidal effect (corrected mortality rate, hatched larvae) activity level” value (Plutella xylostella) was “A (the control rate is 100%)”.

For `CC[S+]([O-])c1cc(C(F)(F)F)cnc1C(=O)N(C)c1ccc(C(F)(F)F)cn1` (stereo not drawn) [Compound 1-17], the “insecticidal effect (corrected mortality rate) activity level” value (Laodelphax striatella) was “A (the control rate is 100%)” and the “insecticidal effect (corrected mortality rate, hatched larvae) activity level” value (Plutella xylostella) was “A (the control rate is 100%)”.

With `CCS(=O)(=O)c1cc(C(F)(F)F)cnc1C(=O)N(C)c1ccc(C(F)(F)F)cn1` [Compound 1-18] the “insecticidal effect (corrected mortality rate) activity level” value (Laodelphax striatella) was “A (the control rate is 100%)” and the “insecticidal effect (corrected mortality rate, hatched larvae) activity level” value (Plutella xylostella) was “A (the control rate is 100%)”.

`CCSc1cc(C(F)(F)F)ccc1C(=O)N(C)c1ccc(C(F)(C(F)(F)F)C(F)(F)F)cn1` [Compound 1-20] was tested, and the “insecticidal effect (corrected mortality rate) activity level” value (Laodelphax striatella) was “A (the control rate is 100%)”, the “control effect” value (Myzus persicae) was “A (the control rate is 100%)” and the “insecticidal effect (corrected mortality rate, hatched larvae) activity level” value (Plutella xylostella) was “A (the control rate is 100%)”.

In the case of `CCS(=O)(=O)c1cc(C(F)(F)F)ccc1C(=O)N(C)c1ccc(C(F)(C(F)(F)F)C(F)(F)F)cn1` [Compound 1-21], the “insecticidal effect (corrected mortality rate) activity level” value (Laodelphax striatella) was “A (the control rate is 100%)”, the “control effect” value (Myzus persicae) was “A (the control rate is 100%)” and the “insecticidal effect (corrected mortality rate, hatched larvae) activity level” value (Plutella xylostella) was “A (the control rate is 100%)”.

With `CCSc1cc(C(F)(F)F)ccc1C(=O)N(C)c1ccc(C(F)(C(F)(F)F)C(F)(F)F)nc1` [Compound 1-22] the “insecticidal effect (corrected mortality rate) activity level” value (Laodelphax striatella) was “A (the control rate is 100%)”, the “control effect” value (Myzus persicae) was “A (the control rate is 100%)” and the “insecticidal effect (corrected mortality rate, hatched larvae) activity level” value (Plutella xylostella) was “A (the control rate is 100%)”.

`CC[S+]([O-])c1cc(C(F)(F)F)ccc1C(=O)N(C)c1ccc(C(F)(C(F)(F)F)C(F)(F)F)nc1` (stereo not drawn) [Compound 1-23] was tested, and the “insecticidal effect (corrected mortality rate) activity level” value (Laodelphax striatella) was “A (the control rate is 100%)”, the “control effect” value (Myzus persicae) was “A (the control rate is 100%)” and the “insecticidal effect (corrected mortality rate, hatched larvae) activity level” value (Plutella xylostella) was “A (the control rate is 100%)”.

For `CCS(=O)(=O)c1cc(C(F)(F)F)ccc1C(=O)N(C)c1ccc(C(F)(C(F)(F)F)C(F)(F)F)nc1` [Compound 1-24], the “insecticidal effect (corrected mortality rate) activity level” value (Laodelphax striatella) was “A (the control rate is 100%)”, the “control effect” value (Myzus persicae) was “A (the control rate is 100%)” and the “insecticidal effect (corrected mortality rate, hatched larvae) activity level” value (Plutella xylostella) was “A (the control rate is 100%)”.

`CC[S+]([O-])c1cc(C(F)(F)F)ccc1C(=O)N(C)c1ccc(Cl)cn1` (stereo not drawn) [Compound 1-37] was tested, and the “control effect” value (Myzus persicae) was “A (the control rate is 100%)” and the “insecticidal effect (corrected mortality rate, hatched larvae) activity level” value (Plutella xylostella) was “A (the control rate is 100%)”.

For `CCS(=O)(=O)c1cc(C(F)(F)F)ccc1C(=O)N(C)c1ccc(Cl)cn1` [Compound 1-38], the “insecticidal effect (corrected mortality rate) activity level” value (Laodelphax striatella) was “A (the control rate is 100%)” and the “insecticidal effect (corrected mortality rate, hatched larvae) activity level” value (Plutella xylostella) was “A (the control rate is 100%)”.

For `CC[S+]([O-])c1cc(C(F)(F)F)ccc1C(=O)N(C)c1ccc(C(F)(F)F)nn1` (stereo not drawn) [Compound 2-2], the “insecticidal effect (corrected mortality rate) activity level” value (Laodelphax striatella) was “A (the control rate is 100%)” and the “insecticidal effect (corrected mortality rate, hatched larvae) activity level” value (Plutella xylostella) was “A (the control rate is 100%)”.

`CCSc1cc(C(F)(F)C(F)(F)C(F)(F)C(F)(F)F)ccc1C(=O)N(C)c1ccc(C(F)(F)F)nn1` [Compound 2-10] was tested, and the “insecticidal effect (corrected mortality rate, hatched larvae) activity level” value (Plutella xylostella) was “A (the control rate is 100%)”.

For `CCS(=O)(=O)c1cc(C(F)(F)C(F)(F)C(F)(F)C(F)(F)F)ccc1C(=O)N(C)c1ccc(C(F)(F)F)nn1` [Compound 2-12], the “insecticidal effect (corrected mortality rate, hatched larvae) activity level” value (Plutella xylostella) was “A (the control rate is 100%)”.

`CCSc1cc(SC(C)(C)C)ccc1C(=O)N(C)c1ccc(C(F)(F)F)nn1` [Compound 2-16] was tested, and the “insecticidal effect (corrected mortality rate) activity level” value (Laodelphax striatella) was “A (the control rate is 100%)” and the “insecticidal effect (corrected mortality rate, hatched larvae) activity level” value (Plutella xylostella) was “A (the control rate is 100%)”.

For `CCS(=O)(=O)c1cc(S(=O)(=O)C(C)(C)C)ccc1C(=O)N(C)c1ccc(C(F)(F)F)nn1` [Compound 2-21], the “insecticidal effect (corrected mortality rate, hatched larvae) activity level” value (Plutella xylostella) was “A (the control rate is 100%)”.

For `CCSc1cc(C(F)(F)F)ccc1C(=O)N(C)c1ccc(C(OC)(C(F)(F)F)C(F)(F)F)cc1` [Compound 3-4], the “insecticidal effect (corrected mortality rate) activity level” value (Laodelphax striatella) was “A (the control rate is 100%)” and the “insecticidal effect (corrected mortality rate, hatched larvae) activity level” value (Plutella xylostella) was “A (the control rate is 100%)”.

In the case of `CCS(=O)(=O)c1cc(C(F)(F)F)ccc1C(=O)N(C)c1ccc(C(OC)(C(F)(F)F)C(F)(F)F)cc1` [Compound 3-6], the “insecticidal effect (corrected mortality rate, hatched larvae) activity level” value (Plutella xylostella) was “A (the control rate is 100%)”.

For `CC[S+]([O-])c1cc(C(F)(F)F)ccc1C(=O)N(C)c1ccc(C(F)(C(F)(F)F)C(F)(F)F)cc1` (stereo not drawn) [Compound 3-8], the “control effect” value (Myzus persicae) was “A (the control rate is 100%)” and the “insecticidal effect (corrected mortality rate, hatched larvae) activity level” value (Plutella xylostella) was “A (the control rate is 100%)”.

With `CCSc1cc(C(F)(F)F)ccc1C(=O)N(C)c1ccc(Cl)cc1` [Compound 3-21] the “insecticidal effect (corrected mortality rate, hatched larvae) activity level” value (Plutella xylostella) was “A (the control rate is 100%)”.

For `CCSc1cc(C(F)(F)F)ccc1C(=O)N(C)c1cccc(Cl)c1` [Compound 3-24], the “insecticidal effect (corrected mortality rate, hatched larvae) activity level” value (Plutella xylostella) was “A (the control rate is 100%)”.

`CCSc1cc(C(F)(F)F)ccc1C(=O)Nc1ccc(C(F)(C(F)(F)F)C(F)(F)F)cc1F` [Compound 4-2] was tested, and the “insecticidal effect (corrected mortality rate, hatched larvae) activity level” value (Plutella xylostella) was “A (the control rate is 100%)”.

For `CCSc1cc(C(F)(F)F)ccc1C(=O)Nc1ccc(C(C(F)(F)F)C(F)(F)F)cc1` [Compound 4-5], the “insecticidal effect (corrected mortality rate, hatched larvae) activity level” value (Plutella xylostella) was “A (the control rate is 100%)”.

`CCSc1cc(C(F)(F)F)ccc1C(=O)Nc1ccc(C(OC)(C(F)(F)F)C(F)(F)F)cc1` [Compound 4-6] was tested, and the “insecticidal effect (corrected mortality rate, hatched larvae) activity level” value (Plutella xylostella) was “A (the control rate is 100%)”.

For `CC[S+]([O-])c1cc(C(F)(F)F)ccc1C(=O)Nc1ccc(C(C(F)(F)F)C(F)(F)F)cc1` (stereo not drawn) [Compound 4-9], the “insecticidal effect (corrected mortality rate, hatched larvae) activity level” value (Plutella xylostella) was “A (the control rate is 100%)”.

For `CCS(=O)(=O)c1cc(C(F)(F)F)ccc1C(=O)Nc1ccc(C(C(F)(F)F)C(F)(F)F)cc1` [Compound 4-10], the “insecticidal effect (corrected mortality rate, hatched larvae) activity level” value (Plutella xylostella) was “A (the control rate is 100%)”.

With `CCS(=O)(=O)c1cc(C(F)(F)F)ccc1C(=O)Nc1ccc(C(F)(C(F)(F)F)C(F)(F)F)cc1` [Compound 4-14] the “insecticidal effect (corrected mortality rate, hatched larvae) activity level” value (Plutella xylostella) was “A (the control rate is 100%)”.

For `CCSc1cc(C(F)(F)F)ccc1C(=O)N(C(=O)C1CC1)c1ccc(CC(F)(F)F)cc1Cl` [Compound 8-1], the “control effect” value (Myzus persicae) was “A (the control rate is 100%)”.

For `CCSc1cc(C(F)(F)F)ccc1C(=O)Nc1ccc(C(OC)(C(F)(F)F)C(F)(F)F)cc1Cl` [Compound 9-4], the “insecticidal effect (corrected mortality rate, hatched larvae) activity level” value (Plutella xylostella) was “A (the control rate is 100%)”.

From US10123537B2, “Amide compound or salt thereof, agricultural and horticultural insecticide and microbicide comprising the compound, and method for using the insecticide and microbicide” (NIHON NOHYAKU CO., LTD., priority 2013, dated 2018)
